This is one part of the list. Further columns of the screen follow, without active or inactive calls. Compounds called inactive in the main read-out are mostly missing here. Words in brackets tell the shape of the fitted curve; partial curves, single points and poor fits give uncertain potencies.
Assay: qHTS Assay to Find Inhibitors of Chronic Active B-Cell Receptor Signaling
Settings: ABC-DLBCL IkBa-CBG/CBR reporter, luminescence ratio (green luciferase fused to IkBa over red control in TMD8 lymphoma cells), 4 h
Procedure, shortened: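 Cell line TMD8 (human ABC DLBCL), stably expressing tet-inducible CBG68-IkBa fusion and CBR; IMDM/0.5% FBS; cpd up to 46 uM; dox induction, 4 h, 37C/5% CO2; dual luminescence; green/red ratio; MG132 control.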

[1] = measured here: CBR red luminescence, cell number
[2] = measured here: IkBa-CBG green luminescence

SMILES	AC50 [1]	AC50 [2]
COc1cccc(N=c2oc3ccccc3cc2-c2nc3ccccc3[nH]2)c1	7.94 µM [falling, partial curve, poor fit]	
CCOc1ccc(NCc2ccccc2OCc2cccc(F)c2)cc1		23.1 µM [falling, partial curve, poor fit]
Brc1ccc(-c2cn3cccnc3n2)cc1	1.03 µM [rising, full curve]	
CCOC(=O)c1ccc(N2CN(CC)CNC2=S)cc1		16.4 µM [falling, partial curve, poor fit]
N#Cc1c(NC(=S)NC(=O)c2ccccc2)sc2c1CCN(CCc1ccccc1)C2	2.06 µM [rising, partial curve]	
Cc1cccc2cc(-c3ccccc3)c(-c3ccccc3)c[n+]12	6.51 µM [falling, partial curve, poor fit]	
COC(CNC(=O)c1ccc2nc(-c3cccs3)c(-c3cccs3)nc2c1)OC	0.651 µM [rising, partial curve, poor fit]	
O=C(Nc1ccn(Cc2ccccc2F)n1)c1ccc(COc2cc(Cl)ccc2Cl)o1	6.31 µM [falling, partial curve]	
COc1ccc(CCNC(=O)COc2ccc3c(C)cc(=O)oc3c2)cc1	32.6 µM [rising, single point]	
Clc1ccc(Cn2ccc3ccccc32)cn1	22.4 µM [rising, partial curve, poor fit]	
O=C(COc1cccc(Br)c1)N/N=C1\CCCc2ccccc21	15.8 µM [rising, partial curve, poor fit]	
COc1ccc(-n2c(C)nnc2SCC(=O)NC2CC2)cc1	5.01 µM [rising, partial curve, poor fit]	
COc1ccccc1CNc1nc(SC)ncc1CO	20.6 µM [rising, partial curve, poor fit]	
O=C(NCc1ccncc1)C(=O)Nc1nc(C23CC4CC(CC(C4)C2)C3)cs1	29.1 µM [falling, single point]	
C=CCN(C(=O)Nc1ccc(Cl)cc1)C1CC(=O)N(c2ccc(OC)cc2)C1=O (configuration not stated)	0.411 µM [rising, partial curve, poor fit]	
COc1ccc(OC)c(NC(=O)c2ccccc2NS(=O)(=O)c2cccc3cccnc23)c1	29.1 µM [rising, single point]	
O=C(O)CSCC(=O)Nc1ccc(-c2nc3ccccc3s2)cc1	11.2 µM [falling, partial curve]	
O=C(NCSc1ccccc1)c1ccccc1	3.26 µM [rising, partial curve, poor fit]	
COc1ccc(NC(=O)C2=Cc3cccc(OC)c3OC2)cc1	10 µM [falling, partial curve, poor fit]	
CN1c2ccccc2-c2nc3ccccc3n2C1c1ccncc1 (configuration not stated)	14.6 µM [falling, partial curve, poor fit]	
Cc1ccc(-c2nnn3c2nc(Cl)c2ccccc23)cc1	4.47 µM [falling, partial curve]	

Rewritten bar-delimited: 9 of the compounds above
SMILES | AC50 [1] | AC50 [2]
COc1cccc(N=c2oc3ccccc3cc2-c2nc3ccccc3[nH]2)c1 | 7.94 µM [falling, partial curve, poor fit] | 
CCOc1ccc(NCc2ccccc2OCc2cccc(F)c2)cc1 |  | 23.1 µM [falling, partial curve, poor fit]
Brc1ccc(-c2cn3cccnc3n2)cc1 | 1.03 µM [rising, full curve] | 
CCOC(=O)c1ccc(N2CN(CC)CNC2=S)cc1 |  | 16.4 µM [falling, partial curve, poor fit]
N#Cc1c(NC(=S)NC(=O)c2ccccc2)sc2c1CCN(CCc1ccccc1)C2 | 2.06 µM [rising, partial curve] | 
Cc1cccc2cc(-c3ccccc3)c(-c3ccccc3)c[n+]12 | 6.51 µM [falling, partial curve, poor fit] | 
COC(CNC(=O)c1ccc2nc(-c3cccs3)c(-c3cccs3)nc2c1)OC | 0.651 µM [rising, partial curve, poor fit] | 
O=C(Nc1ccn(Cc2ccccc2F)n1)c1ccc(COc2cc(Cl)ccc2Cl)o1 | 6.31 µM [falling, partial curve] | 
COc1ccc(CCNC(=O)COc2ccc3c(C)cc(=O)oc3c2)cc1 | 32.6 µM [rising, single point] | 

The results go on:

SMILES	AC50 [1]	AC50 [2]
Cc1ccc(NS(=O)(=O)c2ccc3c(c2)NC(=O)CCS3)cc1C	35.5 µM [falling, partial curve, poor fit]	
N#CC(C#N)=C1C=CC=CN1/C(=C\c1ccco1)C(=O)c1ccccc1	9.2 µM [falling, partial curve]	
CC(=O)Oc1ccc(/C=C(\NC(=O)c2ccco2)C(=O)NCc2ccco2)cc1	11.2 µM [rising, partial curve, poor fit]	
CCOc1ccccc1NC(=O)CSc1nccn1-c1ccccc1	18.4 µM [falling, single point]	
COc1ccc2nc(N3C(=O)CNC3=S)sc2c1	1.41 µM [rising, full curve]	
CN(c1ccc(C(=O)NCC2CCCO2)cc1)S(C)(=O)=O (configuration not stated)	0.103 µM [falling, full curve, poor fit]	
COc1cccc(-c2ncc3ccccc3c2COC(=O)c2cccc(Br)c2)c1	0.92 µM [falling, full curve, poor fit]	
CC(C)(C)c1nnc(N/N=C/c2ccc(Br)cc2)n(N)c1=O	1.3 µM [rising, full curve, poor fit]	
CN(Cc1ccccc1)c1nc(N)nc(Cl)c1C=O	11.2 µM [falling, single point]	
COC(=O)c1ccc(CSc2nc3ccccc3c(=O)n2CC(C)C)o1	15.8 µM [rising, single point]	
CC(=O)Nc1ccccc1C(=O)C(=O)Nc1cccc(Br)c1	0.794 µM [rising, full curve, poor fit]	
O=C(O)c1ccc(N/N=C2/CCSc3ccc(F)cc32)cc1	0.0891 µM [falling, full curve, poor fit]	
CC1=CS(=O)(=O)CC1Sc1nc2ccccc2[nH]1 (configuration not stated)	2.31 µM [rising, single point]	
COc1ccc(/C=C2\SC(=S)N(C(Cc3ccccc3)C(=O)O)C2=O)cc1 (configuration not stated)	3.98 µM [falling, full curve]	
Clc1ccc(-n2nnc(-c3cccnc3Cl)n2)cc1Cl	15.8 µM [falling, single point]	
Cc1cnc(NC(=O)CSc2nnc(-c3ccncc3)n2C2CCCCC2)s1	2 µM [falling, partial curve, poor fit]	
CCOC(=O)c1ccc(COC(=O)CNC(=O)CNC(=O)Cc2ccccc2)cc1	3.16 µM [rising, partial curve]	
COc1ccc(N2C(=S)NC(C)(C)CC2(C)c2ccc(OC(C)=O)cc2OC(C)=O)cc1 (configuration not stated)	20 µM [falling, single point]	
Cc1nn(-c2ccccc2)c(C)c1/C=N/NC(=O)c1ccccc1O	15.8 µM [falling, single point]	
O=C(c1cccs1)N1CCN(c2nc3c(F)cc(F)cc3s2)CC1	0.58 µM [rising, full curve]	
O=C(CCc1nnc(-c2ccc3c(c2)OCO3)o1)NC(c1cccnc1)C(F)(F)F (configuration not stated)	35.5 µM [falling, single point]	

From PubChem BioAssay AID493014 (National Center for Advancing Translational Sciences (NCATS), 2011)
